Experimental data: patent US20240041876A1, “PHARMACEUTICAL COMPOSITION FOR PREVENTION OR TREATMENT OF DEGENERATIVE BRAIN DISEASES COMPRISING ABEMACICLIB AS ACTIVE INGREDIENT” (priority 2020, published 2024)
At least one compound was matched to its structure with a doubt left.

System: 5×FAD mice
Assay: Abemaciclib versus donepezil: tau kinases phospho-GSK-3β and DYRK1A in 5×FAD mice
Assay type: in vivo, mouse
Details: abemaciclib 30 mg/kg or donepezil 1 mg/kg intraperitoneal daily for 14 days
Procedure: F1-generation male 5×FAD mice (stock #34848-JAX, B6Cg-Tg APPSwF1Lon, PSEN1*M146L*L286V6799Vas/Mmjax) purchased from Jackson Laboratory were used. 5×FAD mice (3 months old) were bred in a sterile facility under 12-hour light/dark controlled conditions at an ambient temperature of 22° C. After daily administration of abemaciclib (30 mg/kg, intraperitoneal administration) or vehicle (10% DMSO) to 5×FAD mice for 14 days, Y maze test on day 15 and NOR test on day 16 to 17 were performed, followed by fluorescent tissue staining or Golgi staining.
Then, each brain section was subjected to immunohistochemical staining. Brain sections were rinsed in PBS and permeabilized for 1 hour at room temperature using PBS containing 0.2% Triton X-100 and 1% BSA. Then, the primary antibody was diluted in PBST (0.2% Triton X-100 in PBS) and reacted at 4° C. for 24 hours, and the next day, the tissue was washed three times with PBST, and then reacted with a secondary antibody bound with a fluorescent signal at room temperature for 2 hours. Then, the brain sections were washed three times with PBS, placed on slides, and observed under a fluorescence microscope.

CCN1CCN(Cc2ccc(Nc3ncc(F)c(-c4cc(F)c5nc(C)n(C(C)C)c5c4)n3)nc2)CC1 [abemaciclib]
expression of DYRK1A, a tau kinase, in the cortex: highly effective in inhibiting | expression of DYRK1A, a tau kinase, in the hippocampus: highly effective in inhibiting | hippocampal phospho-GSK-3β levels: reduced hippocampal phospho-GSK-3β levels compared to administration of donepezil
